± gives the uncertainty stated by the source. Many of these values have a large error.
Assay: self-splicing fitness, log relative to wild type (ln ratio); higher = more splicing; Tetrahymena group I intron in knt gene, E. coli kanamycin selection, DiMSum; sequences stand for … in CUCUCU…GGAGGGAAAAGUUAUCAGGCAUGCACCUGGUAGCUAGUCUUUAAACCAAUAGAUUGCAUCGGUUUAAAAGGCAAGACCGUCAAAUUGCGGGAAAGGGGUCAACAGCCGUUCAGUACCAAGUCUCAGGGGAAACUUUGAGAUGGCCUUGCAAAGGGUAUGGUAAUAAGCUGACGGACAUGGUCCUAACCACGCAGCCAAGUCCUAAGUCAACAGAUCUUCUGUUGAUAUGGAUGCAGUUCACAGACUAAAUGUCGGUCGGGGAAGAUGUAUUCUUCUCAUAAGAUAUAGUCGGACCUCUCCUUAAUGGGAGCUAGCGGAUGAAGUGAUGCAACACUGGAGCCGCUGGGAACUAAUUUGUAUGCGAAAGUAUAUUGAUUAGUUUUGGAGUACUCGUGGUCG
Method in brief: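 Pooled colonies went to amplicon sequencing on an Illumina HiSeq 2500 after six replicate transformations. The plates were LB agar with 100 μg/mL carbenicillin, 50 μM IPTG and 0.2% rhamnose, with or without 25 μg/mL kanamycin, incubated overnight at 37°C or 30°C. The E. coli BL21(DE3) library had all eight P1ex-region intron nucleotides randomised, the intron placed in the knt kanamycin-resistance gene on pET-22b(+). DiMSum fitness is the error-weighted combination of replicate fold changes, kanamycin against none, normalised to wild type.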

Sequence | self-splicing fitness (ln) (30 °C) | self-splicing fitness (ln) (37 °C)
UUUGAGCAAUAUUACGUAAC | -2.01 ± 0.5 | -1.53 ± 0.69
GUCAAGCAAUAUUACGUUAC | -3.02 ± 0.17 | -2.96 ± 0.17
GUUGAGCAAUAUUACGCCUG | -3.02 ± 0.51 | –
GACGAGCAAUAUUACGCUGC | -3.57 ± 1 | –
GGUCAGCAAUAUUACGCUCC | 0.00526 ± 0.51 | -1.06 ± 0.8
AAAUAGCAAUAUUACGAGCC | – | -0.773 ± 0.59
GGAUAGCAAUAUUACGACGG | -4.21 ± 0.52 | –
AUGGAGCAAUAUUACGCCGC | – | 1.1 ± 1.1
CAAGAGCAAUAUUACGUACC | – | -1.69 ± 1.2
CCCUAGCAAUAUUACGCUAU | – | -3.54 ± 0.52
UCAGAGCAAUAUUACGGAUA | – | -2.57 ± 0.54
GUGCAGCAAUAUUACGCCGC | -3.18 ± 0.74 | -2.66 ± 0.62
GCUGAGCAAUAUUACGAUCG | -2.65 ± 0.51 | –
UGGAAGCAAUAUUACGGCAC | -4.13 ± 0.74 | –
CUCUAGCAAUAUUACGCCUG | – | -2.4 ± 0.77
ACACAGCAAUAUUACGUUCC | -2.17 ± 0.088 | -1.29 ± 0.1
GACCAGCAAUAUUACGGUUC | -5.29 ± 0.25 | -2.73 ± 0.14
CUCUAGCAAUAUUACGAUCU | -1.32 ± 1.4 | –
GGUGAGCAAUAUUACGAAGC | -3.96 ± 0.76 | 0.0981 ± 0.87
UCACAGCAAUAUUACGGCCC | -3.44 ± 0.45 | -1.82 ± 0.44
ACUAAGCAAUAUUACGCCGA | -1.86 ± 0.18 | -0.197 ± 0.16
AAUUAGCAAUAUUACGGAAG | -3.79 ± 0.73 | –
GUAUAGCAAUAUUACGGCGG | -3.01 ± 0.62 | –
AUCGAGCAAUAUUACGUCCC | -1.12 ± 0.76 | –
AAAAAGCAAUAUUACGCUGC | – | -3.15 ± 0.74

Sequence | self-splicing fitness (ln) (30 °C) | self-splicing fitness (ln) (37 °C)
CGUGAGCAAUAUUACGUACC | -1.26 ± 0.53 | -3.72 ± 0.73
CUCUAGCAAUAUUACGCAGC | – | -3.43 ± 0.6
GGAGAGCAAUAUUACGCUAG | -1.3 ± 0.36 | -0.901 ± 0.42
AGUAAGCAAUAUUACGAGAC | – | -2.61 ± 0.54
CAGAAGCAAUAUUACGAGAA | -4.04 ± 0.53 | –
GAGUAGCAAUAUUACGCGAA | -1.9 ± 0.57 | –
GAGCAGCAAUAUUACGCCCU | – | -2.12 ± 0.55
CUUGAGCAAUAUUACGCCAG | -1.32 ± 0.71 | -1.3 ± 0.56
CGGAAGCAAUAUUACGCUGA | -3.47 ± 0.61 | –
UUCGAGCAAUAUUACGAUAU | -3.85 ± 0.33 | -2.51 ± 0.49
GGUUAGCAAUAUUACGAGGC | -3.39 ± 1 | -3.73 ± 0.73
CCUGAGCAAUAUUACGCCAA | – | -4.62 ± 0.72
UGAGAGCAAUAUUACGUGCU | – | -1.61 ± 0.84
GCGCAGCAAUAUUACGCUGC | -4.14 ± 0.59 | –
GGUUAGCAAUAUUACGUUGA | -2 ± 0.2 | -1.54 ± 0.17
CGGAAGCAAUAUUACGUUCC | – | -3 ± 1.1
CGGGAGCAAUAUUACGCAAC | – | -2.78 ± 0.77
CAGAAGCAAUAUUACGCCCU | -2.25 ± 0.74 | –
UAUGAGCAAUAUUACGUAAG | -5.43 ± 1 | –
GAUGAGCAAUAUUACGAAUA | -2.91 ± 0.75 | -1.37 ± 0.71
UAUGAGCAAUAUUACGAUGC | -3.05 ± 0.6 | -1.17 ± 0.59
UAAGAGCAAUAUUACGAACU | – | -0.778 ± 0.82
UACCAGCAAUAUUACGUGUC | -2.04 ± 0.1 | -2.23 ± 0.15
AUUGAGCAAUAUUACGGACC | – | -0.845 ± 0.92
GGGGAGCAAUAUUACGGAGA | -4.57 ± 0.6 | -3.7 ± 0.52

Sequence | self-splicing fitness (ln) (30 °C) | self-splicing fitness (ln) (37 °C)
CACGAGCAAUAUUACGGCCG | -0.354 ± 0.094 | -0.105 ± 0.13
AGAGAGCAAUAUUACGUGCA | -3.36 ± 0.26 | -2.34 ± 0.24
GAGCAGCAAUAUUACGUUCU | -5.73 ± 1 | –
GACCAGCAAUAUUACGCCAC | -3.67 ± 0.52 | –
CUAGAGCAAUAUUACGCUGG | -2.77 ± 0.76 | –
AUGCAGCAAUAUUACGCCGC | – | -3.17 ± 0.6
UUUGAGCAAUAUUACGAAGU | -4.58 ± 0.72 | –
UCAAAGCAAUAUUACGGACC | -4.7 ± 0.51 | –
UCUGAGCAAUAUUACGGCAU | – | -2.93 ± 0.61
AAGCAGCAAUAUUACGCCUC | -3.83 ± 1 | –
UUAGAGCAAUAUUACGCAGA | – | 0.205 ± 0.67
GUUGAGCAAUAUUACGUCUG | -2.34 ± 0.44 | -2.04 ± 0.4
CAGCAGCAAUAUUACGCGAA | -2.55 ± 0.13 | -1.82 ± 0.15
AGGCAGCAAUAUUACGAAAC | -3.58 ± 0.22 | -1.8 ± 0.19
UGAGAGCAAUAUUACGGCAG | -3.39 ± 0.61 | –
GUGGAGCAAUAUUACGAUAG | -4.66 ± 1 | -1.71 ± 0.52
UCUUAGCAAUAUUACGCCUC | -1.32 ± 1.4 | –
AUUUAGCAAUAUUACGAGGC | – | -1.24 ± 0.68
UCGGAGCAAUAUUACGAUGC | – | 0.406 ± 1.2
CUACAGCAAUAUUACGAUCA | -1.82 ± 0.17 | -1.49 ± 0.2
CUUCAGCAAUAUUACGACCA | -2.6 ± 0.55 | -0.184 ± 0.74
GUAUAGCAAUAUUACGCGGU | -3.85 ± 0.52 | –
CCUCAGCAAUAUUACGCCCU | -2.29 ± 0.24 | -2.73 ± 0.48
CGCGAGCAAUAUUACGUCAC | -3.34 ± 0.5 | -1.73 ± 0.64
GAUGAGCAAUAUUACGGGCC | -3.45 ± 0.52 | -2.82 ± 0.62

Another view of some results above:
CAAGAGCAAUAUUACGUACC
  self-splicing fitness (ln) (37 °C): -1.69 ± 1.2
AAUUAGCAAUAUUACGGAAG
  self-splicing fitness (ln) (30 °C): -3.79 ± 0.73
GUAUAGCAAUAUUACGGCGG
  self-splicing fitness (ln) (30 °C): -3.01 ± 0.62
GGUUAGCAAUAUUACGAGGC
  self-splicing fitness (ln) (30 °C): -3.39 ± 1
  self-splicing fitness (ln) (37 °C): -3.73 ± 0.73

Continuation.

Sequence | self-splicing fitness (ln) (30 °C) | self-splicing fitness (ln) (37 °C)
GUGAAGCAAUAUUACGCCCA | -1.26 ± 0.65 | 0.521 ± 0.66
CCCUAGCAAUAUUACGCUGC | – | -4 ± 0.51
UGAUAGCAAUAUUACGGUAC | -4.41 ± 0.73 | –
GAACAGCAAUAUUACGUUCC | – | -3.21 ± 0.6
CGAAAGCAAUAUUACGUUCA | -0.312 ± 0.074 | 0.0231 ± 0.091
GCCAAGCAAUAUUACGGGCC | -4.6 ± 0.51 | -2.13 ± 0.32
UGGAAGCAAUAUUACGAGGG | -4.54 ± 1 | –
AGGGAGCAAUAUUACGAUGC | -5.54 ± 1 | –
GAAAAGCAAUAUUACGACAU | -0.184 ± 0.011 | 0.116 ± 0.032
UCCAAGCAAUAUUACGCCGC | – | -2.24 ± 0.55
GCAGAGCAAUAUUACGGACA | -4.24 ± 0.73 | –
AGCGAGCAAUAUUACGGUAC | -3.58 ± 0.36 | –
UAGAAGCAAUAUUACGCUUU | -4.85 ± 1 | –
CGUGAGCAAUAUUACGCGAG | – | -2.67 ± 1.1
CUCCAGCAAUAUUACGCCAC | – | -2.54 ± 0.54
UAAGAGCAAUAUUACGUCCC | – | -3.03 ± 0.53
CCUUAGCAAUAUUACGCUCG | -3.42 ± 1 | –
UUUGAGCAAUAUUACGGCCA | -2.36 ± 1.2 | –
UCCGAGCAAUAUUACGGGUC | -5.44 ± 1 | –
AGGGAGCAAUAUUACGUUAC | -4.25 ± 0.74 | –
UGAUAGCAAUAUUACGCUAC | -2.94 ± 1.1 | –
CCGUAGCAAUAUUACGAAGC | 0.0563 ± 0.84 | -1.17 ± 0.64
GCACAGCAAUAUUACGCAGC | -3.8 ± 0.52 | –
UGUAAGCAAUAUUACGCGUC | -3.31 ± 0.25 | -2.65 ± 0.32
UCCUAGCAAUAUUACGUCUA | -3.65 ± 0.61 | –

Sequence | self-splicing fitness (ln) (30 °C) | self-splicing fitness (ln) (37 °C)
UUCUAGCAAUAUUACGCCGG | -1.42 ± 0.56 | –
UGGGAGCAAUAUUACGGAAG | -3.86 ± 0.72 | -2.32 ± 0.65
CGAAAGCAAUAUUACGUGCG | -1.22 ± 0.076 | -0.524 ± 0.097
GUCUAGCAAUAUUACGACUA | – | -0.595 ± 1.4
UCUUAGCAAUAUUACGCCCA | -2.47 ± 1.1 | –
GGCGAGCAAUAUUACGUACC | – | -1.13 ± 0.52
UCGAAGCAAUAUUACGACUC | -4.32 ± 0.59 | –
GUUGAGCAAUAUUACGUAGA | -4.51 ± 0.72 | –
GUUUAGCAAUAUUACGGAGA | -3.51 ± 0.6 | –
GCGAAGCAAUAUUACGAGGA | -3.45 ± 0.53 | –
CUAAAGCAAUAUUACGGAUC | – | -3.08 ± 1
UUGGAGCAAUAUUACGAACG | -1.93 ± 1.2 | –
GGGGAGCAAUAUUACGCUGU | – | -1.79 ± 1.2
UGGCAGCAAUAUUACGAAAC | -3.22 ± 0.6 | –
GCCAAGCAAUAUUACGUUUC | -2.86 ± 0.18 | -0.805 ± 0.12
UGUUAGCAAUAUUACGCGCA | -0.674 ± 0.61 | -2.2 ± 0.63
UAUGAGCAAUAUUACGACCU | -2.36 ± 1.2 | -1.49 ± 0.6
UUGUAGCAAUAUUACGAUAU | -3.78 ± 0.53 | -1.08 ± 0.51
CUCUAGCAAUAUUACGAAUC | -5.3 ± 1 | –
GCCGAGCAAUAUUACGUCGG | – | -4.04 ± 0.51
CACGAGCAAUAUUACGCAGA | -4.63 ± 0.59 | –
UGGAAGCAAUAUUACGUCAC | -4.71 ± 0.72 | –
UCAGAGCAAUAUUACGCGUC | – | -2.08 ± 0.58

Source: the supplement of paper PMC7877785
